# Measured data: PubChem BioAssay AID493246 (Drosophila RNAi Screening Center, 2011)
# Aim: 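Genes fly cells need to grow and stay alive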 (primary screen)
# System: Drosophila Kc and S2R+ cells
# Reagents: long dsRNA against Drosophila genes
# Read-out: 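Raw, unnormalised count of remaining cells in each well; per-plate z-scores of cell number underlie the calls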
# Scale: Kc cell number and S2R+ cell number: higher = more cells remaining
# Hit rule: 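Counted as a hit if cell number falls by a z-score of at least 3 within its plate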
# The screen tested about 21,000 reagents; below is a random part of those that have a named target and a result. Of all reagents, 429 (2%) got an active call. 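Values are raw and not normalised between plates; calls rest on per-plate z-scores that were not deposited.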 Unmarked entries are inactive. Names joined by + are all predicted targets of the reagent. Reagent sequences are not shown. The record does not give: the amount of reagent, the time to read-out.
target,amplicon,"Kc cell number, rep 1","Kc cell number, rep 2","S2R+ cell number, rep 1","S2R+ cell number, rep 2"
Df31 (Decondensation factor 31),DRSC03738,1.50e6,1.69e6,1.05e6,1.23e6
CG18586,DRSC10325,1.43e6,1.61e6,1.28e6,1.29e6
CG12112,DRSC17809,5.92e5,,8.77e5,
CG31835 + CG42585,DRSC01412,1.62e6,1.78e6,1.00e6,1.19e6
Ptp4E (Protein tyrosine phosphatase 4E),DRSC18701,5.88e5,,9.10e5,
CG34247,DRSC09933,1.29e6,1.39e6,1.32e6,1.41e6
ppk14 (pickpocket 14),DRSC03238,1.59e6,1.64e6,1.19e6,1.53e6
EndoU (Endoribonuclease U-specific),DRSC15472,1.64e6,1.68e6,1.26e6,1.34e6
CG18518,DRSC01509,1.52e6,1.57e6,9.48e5,1.17e6
CG12491 + CG34105,DRSC04008,1.47e6,1.59e6,9.82e5,1.09e6
CG12491 + CG34105,DRSC04124,1.58e6,1.63e6,1.26e6,1.33e6
Acbp1 (Acyl-CoA binding protein 1),DRSC03093,1.44e6,1.61e6,1.22e6,1.40e6
CG32374,DRSC10986,1.35e6,1.51e6,1.22e6,1.29e6
snsl (snustorr snarlik),DRSC00543,1.47e6,1.46e6,1.15e6,1.29e6
CG15536,DRSC15072,1.39e6,1.59e6,1.05e6,1.15e6
uex (unextended),DRSC20784,1.22e6,1.38e6,1.19e6,1.23e6
uex (unextended),DRSC20786,1.23e6,1.51e6,1.17e6,1.19e6
CG6362,DRSC07413,1.52e6,1.55e6,1.10e6,1.28e6
RpLP0 (Ribosomal protein LP0),DRSC11878,1.61e6,1.67e6,9.02e5,1.03e6
CG18278 + CG30059,DRSC05418,1.51e6,1.43e6,9.52e5,1.17e6
CG2076,DRSC19832,1.67e6,1.53e6,1.13e6,1.16e6
CG41020 (retired record),DRSC20866,1.25e6,1.52e6,1.16e6,1.13e6
wfs1 (wolfram syndrome 1),DRSC15676,1.51e6,1.51e6,1.01e6,1.09e6
CG13720,DRSC08329,1.47e6,1.34e6,1.07e6,1.14e6
CG9641,DRSC00721,1.38e6,1.38e6,1.02e6,1.15e6
GstE14 (Glutathione S transferase E14),DRSC06881,1.55e6,1.56e6,1.17e6,1.35e6
Mtch,DRSC08679,1.35e6,1.39e6,1.21e6,1.25e6
Atat (alpha-tubulin acetylase),DRSC10392,1.29e6,1.40e6,1.20e6,1.07e6
CG33178,DRSC19950,1.78e6,1.73e6,1.23e6,1.22e6
CG13251,DRSC11699,1.40e6,1.48e6,1.22e6,1.27e6
dah (discontinuous actin hexagon),DRSC20320,5.56e5,,8.35e5,
r-l (rudimentary-like),DRSC17042,1.42e6,1.61e6,1.05e6,1.17e6
Uvrag (UV-resistance associated gene),DRSC02932,1.39e6,1.44e6,1.17e6,1.27e6
Cipc (Clock interacting protein circadian),DRSC14898,5.00e5,,7.95e5,
Cipc (Clock interacting protein circadian),DRSC14900,1.60e6,1.69e6,1.01e6,1.12e6
senju,DRSC02366,1.67e6,1.54e6,1.12e6,1.36e6
Cpsf100 (Cleavage and polyadenylation specificity factor 100),DRSC14146,5.91e5,,8.73e5,
Saf-B (Scaffold attachment factor B),DRSC16167,1.42e6,1.48e6,9.68e5,1.06e6
Gr10a (Gustatory receptor 10a),DRSC18897,1.48e6,1.70e6,1.12e6,1.26e6
cona (corona),DRSC16281,1.23e6,1.20e6,1.06e6,1.17e6
Mst85C,DRSC16746,1.68e6,1.91e6,1.42e6,1.66e6
CG15708,DRSC06579,1.47e6,1.52e6,1.11e6,1.23e6
Sugb (Sugar baby),DRSC10815,1.31e6,1.38e6,1.18e6,1.12e6
chas (chascon),DRSC19508,1.54e6,1.51e6,1.05e6,1.15e6
chas (chascon),DRSC19509,1.51e6,1.49e6,1.08e6,1.10e6
CG15773,DRSC18079,1.44e6,1.41e6,1.05e6,1.09e6
Mdh2 (retired record),DRSC16361,1.35e6,1.36e6,1.06e6,1.11e6
GEFmeso (Guanine nucleotide exchange factor in mesoderm),DRSC06748,1.40e6,1.45e6,1.28e6,1.34e6
GEFmeso (Guanine nucleotide exchange factor in mesoderm),DRSC06940,1.55e6,1.57e6,1.14e6,1.27e6
shf (shifted),DRSC18283,1.62e6,1.52e6,1.03e6,1.15e6
mRpL24 (mitochondrial ribosomal protein L24),DRSC03113,9.63e5,1.49e6,4.24e5,1.51e5
CG13857,DRSC14707,1.23e6,1.27e6,1.13e6,1.29e6
Tk (Tachykinin),DRSC14954,1.35e6,1.69e6,1.05e6,1.13e6
Glo1 (Glyoxalase 1),DRSC06657,1.59e6,1.60e6,1.31e6,1.45e6
CG7220,DRSC05235,1.61e6,1.51e6,1.05e6,1.20e6
CG7220,DRSC07018,1.84e6,1.71e6,1.44e6,1.58e6
Spt3,DRSC15465,1.74e6,1.82e6,1.33e6,1.52e6
Atg6 (Autophagy-related 6),DRSC15798,1.45e6,1.58e6,1.10e6,1.18e6
Dph3 (Diphthamide biosynthesis 3),DRSC14923,1.59e6,1.66e6,1.32e6,1.43e6

Part of the list above, reformatted:
CG12491 + CG34105 [DRSC04124] | Kc cell number, rep 1: 1.58e6; Kc cell number, rep 2: 1.63e6; S2R+ cell number, rep 1: 1.26e6; S2R+ cell number, rep 2: 1.33e6
Acbp1 (Acyl-CoA binding protein 1) [DRSC03093] | Kc cell number, rep 1: 1.44e6; Kc cell number, rep 2: 1.61e6; S2R+ cell number, rep 1: 1.22e6; S2R+ cell number, rep 2: 1.40e6
CG32374 [DRSC10986] | Kc cell number, rep 1: 1.35e6; Kc cell number, rep 2: 1.51e6; S2R+ cell number, rep 1: 1.22e6; S2R+ cell number, rep 2: 1.29e6
snsl (snustorr snarlik) [DRSC00543] | Kc cell number, rep 1: 1.47e6; Kc cell number, rep 2: 1.46e6; S2R+ cell number, rep 1: 1.15e6; S2R+ cell number, rep 2: 1.29e6
CG15536 [DRSC15072] | Kc cell number, rep 1: 1.39e6; Kc cell number, rep 2: 1.59e6; S2R+ cell number, rep 1: 1.05e6; S2R+ cell number, rep 2: 1.15e6
uex (unextended) [DRSC20784] | Kc cell number, rep 1: 1.22e6; Kc cell number, rep 2: 1.38e6; S2R+ cell number, rep 1: 1.19e6; S2R+ cell number, rep 2: 1.23e6
uex (unextended) [DRSC20786] | Kc cell number, rep 1: 1.23e6; Kc cell number, rep 2: 1.51e6; S2R+ cell number, rep 1: 1.17e6; S2R+ cell number, rep 2: 1.19e6
